# Source: paper PMC10560259
# Amino acid sequences for entries named in this document (tags omitted).
# UniProt Q00987: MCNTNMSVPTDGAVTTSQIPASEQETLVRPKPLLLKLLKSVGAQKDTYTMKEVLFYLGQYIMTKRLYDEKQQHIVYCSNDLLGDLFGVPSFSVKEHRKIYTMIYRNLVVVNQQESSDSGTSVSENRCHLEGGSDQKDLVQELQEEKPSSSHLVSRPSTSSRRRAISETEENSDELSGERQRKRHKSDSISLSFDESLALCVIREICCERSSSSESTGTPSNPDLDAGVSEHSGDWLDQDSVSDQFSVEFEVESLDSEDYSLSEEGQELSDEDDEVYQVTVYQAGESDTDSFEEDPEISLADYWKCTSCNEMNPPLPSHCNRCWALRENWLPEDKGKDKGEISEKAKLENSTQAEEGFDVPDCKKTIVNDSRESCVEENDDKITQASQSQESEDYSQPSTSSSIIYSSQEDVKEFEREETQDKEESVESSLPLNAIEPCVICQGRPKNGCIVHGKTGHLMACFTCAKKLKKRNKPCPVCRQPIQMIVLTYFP
# UniProt O94763: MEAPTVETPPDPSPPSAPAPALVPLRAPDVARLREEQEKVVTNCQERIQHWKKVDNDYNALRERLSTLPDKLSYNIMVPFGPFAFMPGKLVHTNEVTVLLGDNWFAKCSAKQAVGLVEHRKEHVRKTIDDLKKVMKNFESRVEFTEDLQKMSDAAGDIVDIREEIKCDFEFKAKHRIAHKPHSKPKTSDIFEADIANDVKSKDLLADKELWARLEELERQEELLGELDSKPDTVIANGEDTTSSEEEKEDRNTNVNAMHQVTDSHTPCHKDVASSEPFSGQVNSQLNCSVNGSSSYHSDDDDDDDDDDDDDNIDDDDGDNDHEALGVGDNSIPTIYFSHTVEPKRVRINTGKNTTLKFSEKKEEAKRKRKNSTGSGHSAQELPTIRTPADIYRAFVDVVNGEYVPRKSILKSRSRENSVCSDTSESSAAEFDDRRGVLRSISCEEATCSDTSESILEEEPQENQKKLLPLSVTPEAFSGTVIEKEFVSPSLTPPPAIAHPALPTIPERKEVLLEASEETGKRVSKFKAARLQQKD
# UniProt Q13263: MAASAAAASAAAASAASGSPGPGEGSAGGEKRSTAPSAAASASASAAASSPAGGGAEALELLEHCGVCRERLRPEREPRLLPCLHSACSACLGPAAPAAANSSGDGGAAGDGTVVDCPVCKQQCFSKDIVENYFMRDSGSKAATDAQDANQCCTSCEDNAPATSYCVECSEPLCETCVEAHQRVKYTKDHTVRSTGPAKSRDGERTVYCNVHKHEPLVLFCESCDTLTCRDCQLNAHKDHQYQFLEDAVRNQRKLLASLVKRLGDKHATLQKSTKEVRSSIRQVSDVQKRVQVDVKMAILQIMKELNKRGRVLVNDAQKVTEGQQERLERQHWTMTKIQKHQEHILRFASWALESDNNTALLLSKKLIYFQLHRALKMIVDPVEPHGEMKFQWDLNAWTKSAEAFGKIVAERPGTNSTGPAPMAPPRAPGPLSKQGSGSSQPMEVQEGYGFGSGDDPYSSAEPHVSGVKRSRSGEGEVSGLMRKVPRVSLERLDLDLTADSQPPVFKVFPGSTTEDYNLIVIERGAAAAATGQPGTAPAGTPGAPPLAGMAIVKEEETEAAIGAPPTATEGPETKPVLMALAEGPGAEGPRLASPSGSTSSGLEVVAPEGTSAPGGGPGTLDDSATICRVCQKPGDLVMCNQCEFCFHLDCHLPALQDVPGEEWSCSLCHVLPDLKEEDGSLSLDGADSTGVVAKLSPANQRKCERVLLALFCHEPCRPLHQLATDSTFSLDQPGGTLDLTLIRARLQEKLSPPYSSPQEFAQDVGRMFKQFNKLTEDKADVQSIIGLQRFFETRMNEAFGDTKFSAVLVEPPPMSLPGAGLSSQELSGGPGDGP
# No constants are given. Whether binding was seen depends on the method and setting. For some of these results: Binding seen in cells or lysates may run through a third protein. Some results given as binding are weak or reduced against the parent protein; the word gives no strength.
# Assays:
# [1] = target: MDM2 in HEK293T cells co-transfected with the indicated plasmids (Fig. 5j) (UniProt Q00987); assay: co-IP; HEK293T cells co-transfected with the indicated plasmids for 48 h, anti-Flag immunoprecipitation; with or without overexpression of URI
# [2] = target: MDM2, endogenous, precipitated with anti-MDM2 antibody (human (endogenous; all cell lines of the paper are human)) (UniProt Q00987); assay: co-IP; anti-MDM2 immunoprecipitation of cell lysates, cells with or without URI depletion, immunoblotting
# [3] = target: unconventional prefoldin RPB5 interactor (URI), His-tagged, expressed in HEK293T (UniProt O94763); assay: co-IP; HEK293T cells transfected with His-URI plasmid, immunoprecipitated with anti-His antibody, Western blot
# GST-URI, purified = GST-URI, purified (UniProt O94763); assay: pull-down; GST pull-down in vitro with purified GST-URI and increasing doses of His-TRIM28; both purified
substance,measurement,setting,value
TRIM28 in HEK293T cells co-transfected with the indicated plasmids (Fig. 5j) (from UniProt Q13263 1-835),binding,[1],binds
"TRIM28, endogenous, in the anti-MDM2 immunoprecipitate (from UniProt Q13263 1-835)",binding,[2],binds
"TRIM28, endogenous in HEK293T (from UniProt Q13263 1-835)",binding,[3],binds
"His-TRIM28, purified recombinant (from UniProt Q13263 1-835)",binding,"GST-URI, purified",binds
